Data as given in PubChem BioAssay AID652243 (Drosophila RNAi Screening Center, 2013)
The deposit covers about 24,000 reagents; below is an unselected part of those that have a named target and a result. In the full data, 246 (1%) are marked active. 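Plates not normalised; calls are printed but the firefly/Renilla ratio behind them is not deposited; fold cut for lowering reported inconsistently.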 The raw values are shown without normalisation. Names joined by + are all predicted targets of the reagent. Not given: the amount of reagent.

- Assay: 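Fly regulators of androgen-dependent reporter output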 (primary screen)
- System: Drosophila S2R+ cells
- Reagent: long dsRNA against Drosophila genes
- Timing: 72 h (48 h, then 24 h hormone)
- Treatment: synthetic androgen R1881 at 10 nM for 24 h
- Measurement: 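Per-well raw luminescence of the androgen-driven firefly reporter and of the Renilla control, two replicates each, without normalisation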
- Reading the numbers: firefly reporter light: higher = more light from androgen-responsive reporter; Renilla control light: higher = more constitutive control signal (cell number, transfection)
- Call rule: 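Across duplicate plates, a knock-down whose log firefly/Renilla ratio shifted a set fold down or up from the GFP/LacZ control mean was a hit; the downward cut appears as both 1.5 and 3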
- Calls: active = hit: reporter lowered or raised; inactive = no hit

The first 2 records as a preview:
no.	target gene	amplicon	firefly reporter light, replicate 1	firefly reporter light, replicate 2	Renilla control light, replicate 1	Renilla control light, replicate 2	Call
1	mIF2	DRSC14510	2.22e5	2.10e5	2.10e6	2.47e6	inactive
2	mIF2	DRSC26368	3.17e5	4.31e5	5.43e5	5.69e5	inactive

The listing, from the first entry:
no.	target gene	amplicon	firefly reporter light, replicate 1	firefly reporter light, replicate 2	Renilla control light, replicate 1	Renilla control light, replicate 2	Call
1	mIF2	DRSC14510	2.22e5	2.10e5	2.10e6	2.47e6	inactive
2	mIF2	DRSC26368	3.17e5	4.31e5	5.43e5	5.69e5	inactive
3	Csgalnact	DRSC06228	3.12e5	2.12e5	1.71e6	1.29e6	inactive
4	Piezo	DRSC03092	4.80e5	9.44e5	1.24e6	1.27e6	inactive
5	Piezo	DRSC03391	3.08e5	2.87e5	1.92e6	2.03e6	inactive
6	CG11068	DRSC19369	3.97e5	2.25e5	3.20e6	3.43e6	inactive
7	CG5727	DRSC02882	9.32e5	7.88e5	2.74e6	2.32e6	inactive
8	CG5727	DRSC29537	3.79e5	5.56e5	7.09e5	7.09e5	inactive
9	al	DRSC00799	6.47e5	6.93e5	1.64e6	1.86e6	inactive
10	ric8a	DRSC18093	81913	99941	5.58e5	5.37e5	inactive
11	ric8a	DRSC24387	5.52e5	5.69e5	1.05e6	8.30e5	inactive
12	Naa35	DRSC04447	5.99e5	7.27e5	1.14e6	1.27e6	inactive
13	Naa35	DRSC26149	2.60e5	3.58e5	6.58e5	6.68e5	inactive
14	nclb	DRSC07009	1.24e5	1.54e5	1.23e6	1.06e6	inactive
15	CG1136	DRSC08184	1.19e6	1.31e6	2.18e6	2.00e6	inactive
16	CG11127	DRSC06043	1.16e6	5.34e5	1.62e6	1.59e6	inactive
17	CG34238	DRSC38652	8.68e5	7.06e5	2.43e6	2.13e6	inactive
18	CG14545	DRSC14889	1.52e5	2.24e5	2.78e6	2.61e6	inactive
19	CG14545	DRSC27728	2.77e5	1.80e5	4.40e5	7.41e5	inactive
20	Mal-A5	DRSC07232	9.46e5	4.57e5	1.86e6	1.24e6	inactive
21	Mal-A5	DRSC29506	5.08e5	4.84e5	8.38e5	8.38e5	inactive
22	sp3	DRSC16354	3.50e5	2.12e5	3.52e6	3.36e6	inactive
23	halo	DRSC00705	1.16e5	1.59e5	1.12e6	1.43e6	inactive
24	halo	DRSC27447	3.20e5	2.94e5	8.77e5	9.09e5	inactive
25	mthl2	DRSC10287	1.40e5	1.87e5	1.48e6	1.84e6	inactive
26	mthl2	DRSC27003	4.87e5	3.27e5	8.67e5	5.82e5	inactive
27	shop	DRSC20030	1.42e5	1.47e5	9.88e5	1.05e6	inactive
28	shop	DRSC26764	2.30e5	1.79e5	4.22e5	4.86e5	inactive
29	PCB	DRSC05939	1.26e6	9.37e5	2.23e6	1.85e6	inactive
30	CG13794	DRSC02298	2.90e5	2.15e5	1.52e6	1.31e6	inactive
31	CG13794	DRSC25419	1.01e6	9.49e5	9.97e5	1.00e6	inactive
32	Pc	DRSC24966	5.25e5	3.53e5	4.59e5	4.10e5	inactive
33	Gr21a	DRSC00366	1.62e5	97782	1.08e6	8.49e5	inactive
34	Gr21a	DRSC28583	9.69e5	9.69e5	1.88e6	1.59e6	inactive
35	MED8	DRSC06426	99044	1.52e5	1.04e6	1.40e6	inactive
36	CG34159	DRSC23222	6.40e5	6.75e5	1.13e6	1.23e6	inactive
37	CG10185	DRSC14205	1.80e5	2.02e5	2.44e6	2.34e6	inactive
38	CG42588	DRSC09820	1.45e5	1.54e5	1.19e6	1.99e6	inactive
39	CG42588	DRSC22121	6.46e5	6.45e5	2.67e6	2.39e6	inactive
40	CG42588	DRSC26914	4.17e5	3.46e5	4.51e5	3.00e5	inactive
41	CG42588	DRSC37828	7.98e5	5.65e5	2.57e6	2.12e6	inactive
42	CG43329	DRSC11672	2.34e5	2.51e5	1.57e6	2.09e6	inactive
43	Surf6	DRSC15588	70494	63289	5.49e5	4.62e5	inactive
44	Surf6	DRSC29437	5.33e5	5.22e5	9.44e5	9.44e5	inactive
45	Ssu72	DRSC19572	1.36e5	1.16e5	2.69e5	2.08e5	inactive
46	Ssu72	DRSC27868	5.87e5	4.14e5	2.48e6	1.56e6	inactive
47	CG15459	DRSC20530	2.26e5	2.98e5	2.21e6	1.82e6	inactive
48	CG15459	DRSC21383	6.63e5	7.20e5	7.78e5	7.61e5	inactive
49	CG15459	DRSC27861	5.75e5	3.48e5	2.65e6	1.19e6	inactive
50	Rgk1	DRSC05785	93931	92683	2.36e5	3.07e5	inactive
51	Rgk1	DRSC05786	1.09e5	1.12e5	2.58e5	4.01e5	inactive
52	Rgk1	DRSC07343	69467	74602	1.21e6	9.47e5	inactive
53	Rgk1	DRSC23535	6.39e5	5.38e5	8.00e5	8.12e5	inactive
54	Rgk1	DRSC25970	4.94e5	4.83e5	7.13e5	6.93e5	inactive
55	VhaAC39-2	DRSC15609	1.64e5	2.21e5	1.87e6	2.91e6	inactive
56	CG10862	DRSC08170	85854	98390	1.14e6	1.18e6	inactive
57	Mocs2A + CR42201 + Mocs2B	DRSC38759	9.29e5	9.07e5	1.82e6	2.05e6	inactive
58	trbd	DRSC16494	36754	53425	2.51e5	3.32e5	inactive
59	trbd	DRSC27999	6.21e5	5.45e5	1.74e6	1.23e6	inactive
60	Gasz	DRSC06829	1.22e6	3.00e5	1.04e6	5.26e5	inactive
61	Gasz	DRSC27833	2.56e5	1.74e5	3.06e5	5.66e5	inactive
62	CG11865	DRSC01872	1.71e5	2.46e5	1.94e6	2.32e6	inactive
63	CG11865	DRSC28173	4.95e5	3.85e5	1.61e6	1.69e6	inactive
64	CG4907	DRSC15673	2.03e5	2.19e5	2.63e6	2.43e6	inactive
65	Myo28B1	DRSC03375	1.72e5	1.95e5	2.13e6	2.04e6	inactive
66	Myo28B1	DRSC28780	3.78e5	2.97e5	9.39e5	9.02e5	inactive
67	Hsc20	DRSC38648	9.42e5	8.03e5	1.92e6	2.26e6	inactive
68	His2Av	DRSC16702	1.31e5	1.31e5	7.79e5	9.52e5	inactive
69	Rab9Db + Rab9D + Rab9E	DRSC17656	1.26e6	6.32e5	1.35e6	4.23e5	inactive
70	Trhn	DRSC08621	5.23e5	5.31e5	1.62e6	1.86e6	inactive
71	CG34299	DRSC38808	7.59e5	6.15e5	2.03e6	1.51e6	inactive
72	RpS29 + snoRNA:Psi18S-1275	DRSC16433	1.11e5	1.42e5	2.16e6	2.51e6	inactive
73	Spn	DRSC07986	1.36e5	1.98e5	3.92e5	3.19e5	inactive
74	Spn	DRSC08490	8.52e5	7.53e5	1.41e6	1.31e6	inactive
75	Spn	DRSC08491	39198	46121	5.17e5	5.50e5	inactive
